Test results as given in article doi:10.1101/2022.01.12.476023.
No constants are given. Whether binding was seen depends on the method and setting. A result given as binding can be weak or reduced; the word gives no strength.

Molecular target: PLP^2539-2895, expressed in S2 cells for the mitochondrial recruitment assay (Drosophila)
Test: mitochondrial recruitment

B1: KHC^601-849, expressed in S2 cells for the mitochondrial recruitment assay (domain or fragment, UniProt P17210 601-849)
chain: GTDASKVEEDFTMARLFISKMKTEAKNIAQRCSNMETQQADSNKKISEYEKDLGEYRLLISQHEARMKSLQESMREAENKKRTLEEQIDSLREECAKLKAAEHVSAVNAEEKQRAEELRSMFDSQMDELREAHTRQVSELRDEIAAKQHEMDEMKDVHQKLLLAHQQMTADYEKVRQEDAEKSSELQNIILTNERREQARKDLKGLEDTVAKELQTLHNLRKLFVQDLQQRIRKNVVNEESEEDGGSLA
For B1, which binding is on record?
Its binding is “binds”.
